No constants are given. Whether binding was seen depends on the method and setting. Some results given as binding are weak or reduced against the parent protein; the word gives no strength.

The chains behind the UniProt entries cited, without tags or fusion partners. Residues count along the entry.
UniProt P48960, residues 21-835: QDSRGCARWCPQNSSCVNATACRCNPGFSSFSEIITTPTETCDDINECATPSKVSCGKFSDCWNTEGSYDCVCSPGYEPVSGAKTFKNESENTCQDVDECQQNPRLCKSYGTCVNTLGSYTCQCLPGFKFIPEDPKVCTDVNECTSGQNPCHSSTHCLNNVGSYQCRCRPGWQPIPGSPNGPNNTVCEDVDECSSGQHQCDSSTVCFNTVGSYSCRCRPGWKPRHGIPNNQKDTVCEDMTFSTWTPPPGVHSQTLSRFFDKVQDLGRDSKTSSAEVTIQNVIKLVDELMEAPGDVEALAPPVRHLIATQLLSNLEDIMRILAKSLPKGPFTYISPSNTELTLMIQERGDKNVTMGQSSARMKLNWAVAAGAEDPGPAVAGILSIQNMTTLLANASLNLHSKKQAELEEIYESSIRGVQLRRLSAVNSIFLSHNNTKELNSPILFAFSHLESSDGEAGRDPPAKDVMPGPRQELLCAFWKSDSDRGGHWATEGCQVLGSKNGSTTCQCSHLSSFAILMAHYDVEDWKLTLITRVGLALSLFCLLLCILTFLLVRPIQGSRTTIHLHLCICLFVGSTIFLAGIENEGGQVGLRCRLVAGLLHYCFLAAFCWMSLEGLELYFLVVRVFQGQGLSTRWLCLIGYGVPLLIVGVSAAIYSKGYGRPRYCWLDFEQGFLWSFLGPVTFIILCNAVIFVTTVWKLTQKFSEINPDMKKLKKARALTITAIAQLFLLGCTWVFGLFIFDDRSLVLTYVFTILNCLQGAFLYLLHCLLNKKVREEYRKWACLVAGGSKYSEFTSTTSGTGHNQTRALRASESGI

From patent publication US20250051474A1, “ANTI-CD97 ANTIBODIES AND ANTIBODY-DRUG CONJUGATES” (New York University, priority 2023, published 2025) come the findings set out here.

Assay [1] addresses T1, EMR2 (EGF-like module-containing mucin-like hormone receptor-like 2) isoform 4 ectodomain, purified and biotinylated (UniProt Q9UHX3).
T1 sequence (biotinylated in vitro using the BirA enzyme, looked up): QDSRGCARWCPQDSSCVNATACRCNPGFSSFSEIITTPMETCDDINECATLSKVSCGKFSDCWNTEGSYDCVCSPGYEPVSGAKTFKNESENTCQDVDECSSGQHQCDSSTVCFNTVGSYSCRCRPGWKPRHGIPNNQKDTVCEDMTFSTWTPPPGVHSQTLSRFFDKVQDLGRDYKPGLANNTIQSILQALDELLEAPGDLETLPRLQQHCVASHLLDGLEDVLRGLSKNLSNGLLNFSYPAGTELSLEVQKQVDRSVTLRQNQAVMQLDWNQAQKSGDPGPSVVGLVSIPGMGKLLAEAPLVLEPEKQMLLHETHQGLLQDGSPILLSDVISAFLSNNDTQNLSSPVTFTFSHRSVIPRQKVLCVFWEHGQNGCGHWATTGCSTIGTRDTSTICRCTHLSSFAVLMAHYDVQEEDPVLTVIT
Briefly: bead-based binding titration (biotinylated antigen on streptavidin beads, flow cytometry). (In general: A flow cytometer gives signals particle by particle.)

Assay [2] has as its target E1-E5-GAIN (human) (UniProt P48960). Briefly: staining of ExpiCHO cells expressing the CD97 construct, gated on expression tag, flow cytometry.
Assay [3] deals with T1, EMR2 (EGF-like module-containing mucin-like hormone receptor-like 2) isoform 4 ectodomain, purified and biotinylated. The assay can be described thus: bead-based binding titration (biotinylated antigen on streptavidin beads, flow cytometry) [Continued].

B1: Fab B23 (Fab, V domains shown)
VH: EVQLVESGGGLVQPGGSLRLSCAASGFTVSSSSIHWVRQAPGKGLEWVASIYPYSGSTSYADSVKGRFTISADTSKNTAYLQMNSLRAEDTAVYYCARSLGWHRHYNYYFYFYANAIDYWGQGTLVTVSS
VL: DIQMTQSPSSLSASVGDRVTITCRASQSVSSAVAWYQQKPGKAPKLLIYSASSLYSGVPSRFSGSRSGTDFTLTISSLQPEDFATYYCQQYWGSDPITFGQGTKVEIKR
notes: first discovery campaign; also called Antibody Clone B23
With B1, in assay [1], the binding result is listed as “no binding (tested: 50 nM)”.

B2: Fab C14 (Fab, V domains shown)
VH: EVQLVESGGGLVQPGGSLRLSCAASGFTVSSSSIHWVRQAPGKGLEWVASIYSYSGSTSYADSVKGRFTISADTSKNTAYLQMNSLRAEDTAVYYCARSFGWGQSFYYSHYFYITAFDYWGQGTLVTVSS
VL: DIQMTQSPSSLSASVGDRVTITCRASQSVSSAVAWYQQKPGKAPKLLIYSASSLYSGVPSRFSGSRSGTDFTLTISSLQPEDFATYYCQQYWHESLITFGQGTKVEIKR
notes: first discovery campaign; also called Antibody Clone C14
Regarding B2, in assay [1], the binding entry is reported as “no binding (tested: 50 nM)”.

B3: Antibody clone 2V10, human IgG1 LALA-PG format (antibody, V domains shown)
VH: EVQLVESGGGLVQPGGSLRLSCAASGFTISSSSIHWVRQAPGKGLEWVAYIYPSSGSTSYADSVKGRFTISADTSKNTAYLQMNSLRAEDTAVYYCARPWYYSTFNKKWWDYQGLDYWGQGTLVTVSS
VL: DIQMTQSPSSLSASVGDRVTITCRASQSVSSAVAWYQQKPGKAPKLLIYSASSLYSGVPSRFSGSRSGTDFTLTISSLQPEDFATYYCQQSWWDPITFGQGTKVEIKR
As for B3, the binding entry in assay [2] was “binds”.

B4: Fab D9 (Fab, V domains shown)
VH: EVQLVESGGGLVQPGGSLRLSCAASGFTVSSSSIHWVRQAPGKGLEWVASISSYYGYTSYADSVKGRFTISADTSKNTAYLQMNSLRAEDTAVYYCARYPMFSYYYWYYGMDYWGQGTLVTVSS
VL: DIQMTQSPSSLSASVGDRVTITCRASQSVSSAVAWYQQKPGKAPKLLIYSASSLYSGVPSRFSGSRSGTDFTLTISSLQPEDFATYYCQQSSGYPVTFGQGTKVEIKR
notes: first discovery campaign; also called Antibody Clone D9
In the case of B4, the binding entry in assay [3] is “no binding (tested: 50 nM)”.

B5: Fab D25 (Fab, V domains shown)
VH: EVQLVESGGGLVQPGGSLRLSCAASGFTFSSSSIHWVRQAPGKGLEWVASISPYYGSTSYADSVKGRFTISADTSKNTAYLQMNSLRAEDTAVYYCARKLEWGMFFWSPYFRALDYWGQGTLVTVSS
VL: DIQMTQSPSSLSASVGDRVTITCRASQSVSSAVAWYQQKPGKAPKLLIYSASSLYSGVPSRFSGSRSGTDFTLTISSLQPEDFATYYCQQSSSSLITFGQGTKVEIKR
notes: first discovery campaign; also called Antibody Clone D25
For B5, the binding entry in assay [3] was “no binding (tested: 300 nM)”.

B6: Fab B20 (Fab, V domains shown)
VH: EVQLVESGGGLVQPGGSLRLSCAASGFTISSSSIHWVRQAPGKGLEWVASISSSSGSTSYADSVKGRFTISADTSKNTAYLQMNSLRAEDTAVYYCARIRHYHWYEIPYWDWAIDYWGQGTLVTVSS
VL: DIQMTQSPSSLSASVGDRVTITCRASQSVSSAVAWYQQKPGKAPKLLIYSASSLYSGVPSRFSGSRSGTDFTLTISSLQPEDFATYYCQQSSSSLITFGQGTKVEIKR
notes: first discovery campaign; also called Antibody Clone B20
As for B6, in assay [1], the binding entry is listed as “no binding (tested: 50 nM)”.

B7: Fab B25 (Fab, V domains shown)
VH: EVQLVESGGGLVQPGGSLRLSCAASGFTISSSSIHWVRQAPGKGLEWVASISSYSGSTSYADSVKGRFTISADTSKNTAYLQMNSLRAEDTAVYYCARSFFKYYLWYGYHNYWSAIDYWGQGTLVTVSS
VL: DIQMTQSPSSLSASVGDRVTITCRASQSVSSAVAWYQQKPGKAPKLLIYSASSLYSGVPSRFSGSRSGTDFTLTISSLQPEDFATYYCQQSSSSLITFGQGTKVEIKR
notes: first discovery campaign; also called Antibody Clone B25
On to B7, for which the binding result in assay [1] is “no binding (tested: 50 nM)”.

B8: Fab D12 (Fab, V domains shown)
VH: EVQLVESGGGLVQPGGSLRLSCAASGFTFSSSSIHWVRQAPGKGLEWVASISSSSGSTSYADSVKGRFTISADTSKNTAYLQMNSLRAEDTAVYYCARIRHYHWYEIPYWDWAIDYWGQGTLVTVSS
VL: DIQMTQSPSSLSASVGDRVTITCRASQSVSSAVAWYQQKPGKAPKLLIYSASSLYSGVPSRFSGSRSGTDFTLTISSLQPEDFATYYCQQSSSSLITFGQGTKVEIKR
notes: first discovery campaign; also called Antibody Clone D12
B8: in assay [3], the binding entry was “no binding (tested: 50 nM)”.

B9: Fab B34 (Fab, V domains shown)
VH: EVQLVESGGGLVQPGGSLRLSCAASGFTVSYSSIHWVRQAPGKGLEWVASIYSSSGYTSYADSVKGRFTISADTSKNTAYLQMNSLRAEDTAVYYCARSYYRYYLSPIYWGSWGMDYWGQGTLVTVSS
VL: DIQMTQSPSSLSASVGDRVTITCRASQSVSSAVAWYQQKPGKAPKLLIYSASSLYSGVPSRFSGSRSGTDFTLTISSLQPEDFATYYCQQSGYYGHLITFGQGTKVEIKR
notes: first discovery campaign; also called Antibody Clone B34
Regarding B9, in assay [1], the binding entry is given as “no binding (tested: 50 nM)”.

B10: Fab A1 (Fab, V domains shown)
VH: EVQLVESGGGLVQPGGSLRLSCAASGFTISSSSIHWVRQAPGKGLEWVASIYSYYGSTYYADSVKGRFTISADTSKNTAYLQMNSLRAEDTAVYYCARPVYGQLGYWTQRWSGMDYWGQGTLVTVSS
VL: DIQMTQSPSSLSASVGDRVTITCRASQSVSSAVAWYQQKPGKAPKLLIYSASSLYSGVPSRFSGSRSGTDFTLTISSLQPEDFATYYCQQYSWSSYLITFGQGTKVEIKR
notes: first discovery campaign; also called Antibody Clone A1
In the case of B10, the binding entry in assay [1] is given as “no binding (tested: 50 nM)”.

B11: Fab B3 (Fab, V domains shown)
VH: EVQLVESGGGLVQPGGSLRLSCAASGFTFSSSSIHWVRQAPGKGLEWVASISPYSGYTSYADSVKGRFTISADTSKNTAYLQMNSLRAEDTAVYYCARAYYYWSHWYMHYVSYPGGMDYWGQGTLVTVSS
VL: DIQMTQSPSSLSASVGDRVTITCRASQSVSSAVAWYQQKPGKAPKLLIYSASSLYSGVPSRFSGSRSGTDFTLTISSLQPEDFATYYCQQLRHYSHLITFGQGTKVEIKR
notes: first discovery campaign; also called Antibody Clone B3
For the molecule B11, the binding entry in assay [1] was “no binding (tested: 50 nM)”.
